Some results were stated once for a whole list of compounds, not compound by compound.
Experiment: Water solubility

| SMILES | Water Sol. (listed as Compound C1) | Water Sol. (listed as Compound C2) |
| --- | --- | --- |
| COC(=O)C1C2C[C@@H](OC3O[C@H](C)[C@@H](O)[C@H](NC[C@@]4(O)OC[C@@H](O)[C@H](O)[C@@H]4O)[C@@H]3O)/C=C/C=C/C=C/C=C/C=C/C=C/C=C/[C@H](C)[C@@H](O)[C@@H](C)[C@H](C)OC(=O)C[C@H](O)C[C@H](O)CC[C@@H](O)[C@H](O)C[C@H](O)C[C@](O)(C[C@@H]1O)O2 (some centres unmarked) [Compound C1, N-tagatopyranose-amphotericin B methyl ester] | higher water solubility than AME and extremely higher water solubility than AmB | – |
| COC(=O)C1C2C[C@@H](OC3O[C@H](C)[C@@H](O)[C@H](NC[C@@]4(O)OC[C@@H](O)[C@@H](OC5O[C@H](CO)[C@H](O)[C@H](O)[C@H]5O)[C@@H]4O)[C@@H]3O)/C=C/C=C/C=C/C=C/C=C/C=C/C=C/[C@H](C)[C@@H](O)[C@@H](C)[C@H](C)OC(=O)C[C@H](O)C[C@H](O)CC[C@@H](O)[C@H](O)C[C@H](O)C[C@](O)(C[C@@H]1O)O2 (some centres unmarked) [Compound C2] | – | higher water solubility than AME and extremely higher water solubility than AmB |

Reference: patent US6562796B2, “Derivatives of polyene macrolides and preparation and use thereof” (Micrologix Biotech Inc., priority 2000, dated 2003)
